Data from patent publication US20230365651A1.

What follows are binders tested against HLA-B*44:02 (human) (assay: UV peptide exchange, anti-b2m ELISA).

binding, binds:
SEVPLPMAI [… (SEQ ID NO: 425)]
PEKTTHSF [PEKTTHSF (SEQ ID NO: 426)]
HESSSHHDL [… (SEQ ID NO: 427)]
REKFIASVI [… (SEQ ID NO: 429)]
AEQDPDELNKA [… (SEQ ID NO: 431)]
SDSQVRAF [SDSQVRAF (SEQ ID NO: 433)]
KEAIREHQM [… (SEQ ID NO: 434)]
REEFVSIDHL [… (SEQ ID NO: 435)]
REPGDIFSEL [… (SEQ ID NO: 436)]
TEAVVTNEL [… (SEQ ID NO: 437)]
SEVDSPNVL [… (SEQ ID NO: 438)]

What follows are binders tested against HLA-A*03:01 (human) (assay: UV peptide exchange, anti-b2m ELISA).

binding, binds:
RLFTSPIMTK [… (SEQ ID NO: 100)]
RVFTSSIKTK [… (SEQ ID NO: 101)]
SVLTSSLVK [… (SEQ ID NO: 102)]
VLADSVTTK [… (SEQ ID NO: 104)]
RLFSWLVNR [… (SEQ ID NO: 105)]
AAFVPLLLK [… (SEQ ID NO: 106)]
RLQEWKALK [… (SEQ ID NO: 107)]
KTFTIKRFLAK [… (SEQ ID NO: 109)]
SAAPPSYFR [… (SEQ ID NO: 110)]
RTEEVLLTFK [… (SEQ ID NO: 256)]
VTADHSHVF [… (SEQ ID NO: 257)]
GAYAHTVNR [… (SEQ ID NO: 258)]
KTLELRVAY [… (SEQ ID NO: 259)]
GTNTVILEY [… (SEQ ID NO: 260)]
HTFGLFYQR [… (SEQ ID NO: 261)]
RSRLNPLVQR [… (SEQ ID NO: 262)]
SSSSATISK [… (SEQ ID NO: 263)]
AIKVIPTVFK [… (SEQ ID NO: 264)]
QIHDHVNPK [… (SEQ ID NO: 265)]
ISYSGQFLVK [… (SEQ ID NO: 266)]
VTDLISPRK [… (SEQ ID NO: 267)]
RLKGDAWVYK [… (SEQ ID NO: 269)]
AVFNPRFYRTY [… (SEQ ID NO: 270)]
RMFADDLHNLNK [… (SEQ ID NO: 271)]
RQPERTILRPR [… (SEQ ID NO: 272)]
RVNAIPFTY [… (SEQ ID NO: 273)]
KTFPASTVF [… (SEQ ID NO: 274)]
STTFPTLTK [… (SEQ ID NO: 275)]
VSKTTGMEF [… (SEQ ID NO: 276)]
TTALKTTSR [… (SEQ ID NO: 277)]
NLSSITHER [… (SEQ ID NO: 278)]
SVSSETTKIKR [… (SEQ ID NO: 279)]
SVSGVKTTF [… (SEQ ID NO: 280)]
RAKELEATF [… (SEQ ID NO: 281)]
IVQEPTEEK [… (SEQ ID NO: 283)]
KSLIKSWKK [… (SEQ ID NO: 284)]
GTVNPTVGK [… (SEQ ID NO: 285)]
TVAPPQGVVK [… (SEQ ID NO: 286)]
RRIHTGEKPYK [… (SEQ ID NO: 287)]
RMASPVNVK [… (SEQ ID NO: 20)]
AVRKPIVLK [… (SEQ ID NO: 21)]
SLKERNPLK [… (SEQ ID NO: 22)]
GMMKGGIRK [… (SEQ ID NO: 23)]
SMYYPLQLK [… (SEQ ID NO: 24)]
RISEYLLEK [… (SEQ ID NO: 26)]
VLYGPAGLGK [… (SEQ ID NO: 27)]
KTYETNLEIKK [… (SEQ ID NO: 28)]
ALEVAHRLK [… (SEQ ID NO: 30)]
GTYAHTVNR [… (SEQ ID NO: 83)]
KLQPAQTAAK [… (SEQ ID NO: 84)]
VLLGSLFSRK [… (SEQ ID NO: 85)]
VVLLGSLFSRK [… (SEQ ID NO: 86)]
AVAPPTPASK [… (SEQ ID NO: 87)]
VVHAVFALK [… (SEQ ID NO: 88)]
RVAELLLLH [… (SEQ ID NO: 89)]
KVAGERYVYK [… (SEQ ID NO: 90)]
RSLRYYYEK [… (SEQ ID NO: 91)]
KILEEHTNK [… (SEQ ID NO: 93)]
ATFERVLLR [… (SEQ ID NO: 94)]
QSMYYPLQLK [… (SEQ ID NO: 95)]
LLQPPPLLAR [… (SEQ ID NO: 98)]
KVVDRWNEK [… (SEQ ID NO: 99)]

These binders were tested against HLA-A*02:01 (human) (assay: UV peptide exchange, anti-b2m ELISA).

binding, binds:
MIPTFTALL [… (SEQ ID NO: 1)]
GLLSLTSTLYL [… (SEQ ID NO: 60)]

These are yes or no findings as the source states them, for the method shown. Binding calls can cover weak binding; strength is not graded here.
